Measurements: US20130137728A1, “Compositions and Methods for the Treatment of Degenerative Diseases” (MUSC Foundation For Research And Development, priority 2010, published 2013)
Some of these results come from one statement about several compounds together.

Test system: 661W cells
Assay: Viability of stressor-treated cells by dye exclusion 24 h after treatment
Format: cell-based, mouse
Conditions: higher doses
Protocol: 28. FIG. 17. Calcium and oxidative stress attenuate mitochondrial capacity. Shown are 661W cell OCR responses to 1 μM FCCP after treatment with listed concentrations of (A) A23187 and (B) tBuOOH. In A OCR rates are given as pmol/min, in B the rates for each well have been normalized to the basal rates measured prior to FCCP (which standardizes comparisons between data measured on different days). 661W cells analyzed by XF24 were incubated for 24 h and viability determined using ethidium bromide/acridine orange. Images of cells treated with (C) 1 μM A23187 and (D) control represent 47% and >95% viability.
269. The cells were then returned to the incubator and analyzed for cell viability via dye exclusion 24 h after treatment (FIGS. 17C,D). […] In addition, the higher concentrations produced profound changes in metabolic phenotype as evidenced in the cell's responses to the uncoupler FFCP. […] In both cases, reduced OCR and ECAR values are predictive of cell death although at intermediate concentrations, where cell death is still occurring, the ECAR rates actually increase, particularly for tBuOOH treatments.

Row | SMILES | death at 24 h
1 | CNc1ccc2oc(C[C@H]3O[C@@]4(CC[C@H]3C)O[C@H]([C@H](C)C(=O)c3ccc[nH]3)[C@H](C)C[C@H]4C)nc2c1C(=O)O [A23187] | up to 80%
2 | CC(C)(C)OO [tBuOOH, tert-butylhydroperoxide] | up to 80%
